# Reference: PubChem BioAssay AID504834 (National Center for Advancing Translational Sciences (NCATS), 2011)
# The campaign covered roughly 320,000 compounds. About 22,000 (6.9%) were called active. Inconclusive results, whose numbers are uncertain, are shown with a selection of clear calls. Calls follow the shape of the dose curve; as a rule, active = well fitted inhibition curve with a large enough effect; inconclusive = small, poorly fitted or top-dose-only effect, or another doubt; inactive = no such curve, though single readings can be large or run the other way. Potencies of inconclusive entries are doubtful fits and often do not repeat.
# Assay: Primary qHTS for delayed death inhibitors of the malarial parasite plastid, 96 hour incubation
# Settings: P. falciparum luciferase reporter growth; series mostly up to 28.7 µM; activity change, negative = inhibition: at the top concentration
# In short: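 96 h incubation, 37 C, 5% CO2, of luciferase-reporter P. falciparum-infected RBCs (2% hematocrit, 0.05% parasitemia final) with test compounds; endpoint luminescence.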
# % is scaled to controls: 0 for no effect and ±100 for the full control effect; potency is read from the fitted curve at half-maximal effect.
SMILES,Potency,"activity change, negative = inhibition"
CN(C(=O)CSc1nncc2ccccc12)C1CCCCC1,"inconclusive: 13.1 µM [inhibitor, single point]",–
COc1cc(C)ccc1OCc1cc(C(=O)NC(C)Cn2cncn2)no1 (configuration not stated),"inconclusive: 18.5 µM [inhibitor, single point]",–
CCCC(=O)Nc1cc(S(=O)(=O)N(CC)CC)ccc1Cl,"inconclusive: 18.5 µM [inhibitor, single point]",–
O=C(CNc1ccccc1)N/N=C/c1cc([N+](=O)[O-])ccc1N1CCCC1,"inconclusive: 10.4 µM [inhibitor, partial curve, poor fit]",–
N#Cc1ccccc1S(=O)(=O)N1CCN(C(=O)CN2CCCC2c2cccs2)CC1 (configuration not stated),active: 4.65 µM,–
O=C(NC(=S)Nc1ccccc1N1CCCC1)c1cccs1,"inconclusive: 10.4 µM [inhibitor, single point]",–
O=C(Cc1nc2ccccc2[nH]1)c1cccc([N+](=O)[O-])c1,"inconclusive: 2.33 µM [inhibitor, single point]",–
COc1ccccc1C(=O)NCCn1cc(SCC(=O)Nc2nnc(C)s2)c2ccccc21,"inconclusive: 8.28 µM [inhibitor, partial curve]",–
O=C(c1c(F)cccc1F)N1CCC(O)(c2ccc(F)cc2)CC1,"inconclusive: 4.65 µM [inhibitor, partial curve, poor fit]",–
Cc1cc(S(=O)(=O)N2CCN(c3ccc(F)cc3)CC2)c(C)s1,"inconclusive: 20.8 µM [inhibitor, single point]",–
CCCCSc1cc(=O)n(-c2ccccc2)nc1C(=O)OCC,"inconclusive: 18.5 µM [inhibitor, single point]",–
CCCC1=C(C(=O)OCC)C2(C(=O)Nc3ccc(C)cc32)C(C#N)=C(N)O1 (configuration not stated),"inconclusive: 13.1 µM [inhibitor, partial curve, poor fit]",–
CCN(CC)C(=O)C(=O)c1cn(CC(=O)N2CCc3ccccc3C2)c2ccccc12,–,inactive: 1.06%
O=C(Nc1cccc2c1CCCC2)c1cc([N+](=O)[O-])ccc1Cl,"inconclusive: 10.4 µM [inhibitor, single point]",–
O=C(O)CC1(CC(=O)Nc2ccc3c(c2)C(=O)OC3)CCCCC1,"inconclusive: 5.86 µM [inhibitor, partial curve, poor fit]",–
Cc1ccc(C(=O)N[C@@H](C)CN2C3=NC[C@H](C(C)C)N3C[C@H]2Cc2ccc(O)cc2)cc1Br,active: 9.28 µM,–
COCCNC(=O)/C(C#N)=C/c1cccc(OCc2ccccc2)c1,"inconclusive: 3.29 µM [inhibitor, partial curve, poor fit]",–
Cc1cccc(OCCn2nnc3ccccc32)c1C,"inconclusive: 10.4 µM [inhibitor, single point]",–
CCC(C)n1c(-c2cccc(S(=O)(=O)N(CC)CC)c2)n[nH]c1=S (configuration not stated),"inconclusive: 2.33 µM [inhibitor, full curve, poor fit]",–
CCn1c(SCCN2CCOCC2)nc2c1c(=O)n(C)c(=O)n2C,"inconclusive: 0.147 µM [inhibitor, full curve, poor fit]",–
COC(=O)c1c(NC(NC(=O)c2ccccc2)(C(F)(F)F)C(F)(F)F)sc2c1CCN(C)C2,active: 2.33 µM,–
CCN(CC)Cc1cc(C(C)=O)ccc1O,"inconclusive: 11.7 µM [inhibitor, single point]",–
O=C(CSc1nnnn1-c1ccc(O)cc1)N1N=C(c2ccc3ccccc3c2)CC1c1ccccc1 (configuration not stated),"inconclusive: 2.33 µM [inhibitor, full curve]",–

SMILES,Potency,"activity change, negative = inhibition"
Cc1nc(Nc2ccc(Cl)c(Cl)c2)sc1C(=O)Nc1ccccc1,"inconclusive: 11.7 µM [inhibitor, single point]",–
CC(C)Oc1ccc(-c2cc(C(=O)NCCN3CCOCC3)c3ccccc3n2)cc1,–,inactive: 31.4%
Brc1ccc(-c2ccc(C3Nc4cccc5cccc(c45)N3)o2)cc1,"inconclusive: 11.7 µM [inhibitor, single point]",–
CC(=O)COc1ccc2cc(-c3ccccc3)c(=O)oc2c1,–,inactive: 6.45%
Cc1cc(C(=O)OCC(=O)Nc2cc(Cl)ccc2C)c(C)o1,"inconclusive: 18.5 µM [inhibitor, partial curve, poor fit]",–
Nc1nc(NCCCN2CCOCC2)nc(Nc2ccccc2F)c1[N+](=O)[O-],"inconclusive: 4.15 µM [inhibitor, full curve, poor fit]",–
COc1cc(S(=O)(=O)N2CCN(C(=O)c3ccco3)CC2)c(OC)cc1C,–,inactive: -0.102%
O=C(COc1ccc(Cl)cc1Br)N1CCN(c2ncccn2)CC1,"inconclusive: 1.04 µM [inhibitor, full curve]",–
Cc1ccc(NC(=S)N(CCCN2CCCC(C)C2)Cc2ccco2)cc1C (configuration not stated),–,inactive: -4.24%
O=C(N/N=C/c1c(O)n(CCc2ccccc2)c(=O)[nH]c1=O)c1ccccc1O,–,inactive: -10.7%
CC1(C)OC(=O)C(=CNNc2c(Cl)cc(Cl)cc2Cl)C(=O)O1,–,inactive: 16.5%
Cc1sc2ncnc(SCC(=O)Nc3ccc(CN4CCCC4)cc3)c2c1C,"inconclusive: 18.5 µM [inhibitor, single point]",–
O=C(C1=COCCO1)N1CCN(S(=O)(=O)c2cccc(Cl)c2Cl)CC1,active: 14.7 µM,–
COc1cccc(OC)c1CNC(=O)C1CCC(=O)N(CC2CCCCC2)C1 (configuration not stated),–,inactive: -1.25%
CCc1ccc(NC(=O)C[n+]2cc(-c3ccc(C)cc3)n3c2CCC3)cc1,active: 1.47 µM,–
COc1ccc(N2CCN(CCNC(=O)Nc3ccc([N+](=O)[O-])cc3OC)CC2)cc1,–,inactive: 21.5%
O=C(NCCC1=CCCCC1)C(=O)NCCc1ccc(Cl)cc1,"inconclusive: 1.85 µM [inhibitor, full curve, poor fit]",–
Cn1c(C(C(=O)NCC2CCCO2)N(CCc2ccccc2)C(=O)Cn2nnc3ccccc32)nc2ccccc21 (configuration not stated),"inconclusive: 9.28 µM [inhibitor, single point]",–
Cc1ccc(S(=O)(=O)N2CCN(C(=O)CSC(=S)N3CCCC3)CC2)c(C)c1,"inconclusive: 18.5 µM [inhibitor, single point]",–
COc1ccc(CNC(=O)C2=C(C)C(=O)OC23CCC(C)CC3)cc1 (configuration not stated),"inconclusive: 20.8 µM [inhibitor, partial curve, poor fit]",–
Cc1ccc(S(=O)(=O)CC(=O)c2ccccc2[N+](=O)[O-])cc1,–,inactive: 11.4%
COC(=O)C1=C(C)N(CCCC(=O)O)C(=O)NC1c1ccc(-c2ccccc2)cc1 (configuration not stated),"inconclusive: 18.5 µM [inhibitor, single point]",–
COc1ccc(CCNC(=O)c2ccc(S(=O)(=O)N3CCCCC3)cc2)cc1,"inconclusive: 13.1 µM [inhibitor, partial curve, poor fit]",–

# Reprinted at random: 5 compounds from above.
SMILES,Potency,"activity change, negative = inhibition"
COC(=O)C1=C(C)N(CCCC(=O)O)C(=O)NC1c1ccc(-c2ccccc2)cc1 (configuration not stated),"inconclusive: 18.5 µM [inhibitor, single point]",–
Cc1cc(S(=O)(=O)N2CCN(c3ccc(F)cc3)CC2)c(C)s1,"inconclusive: 20.8 µM [inhibitor, single point]",–
COc1ccccc1C(=O)NCCn1cc(SCC(=O)Nc2nnc(C)s2)c2ccccc21,"inconclusive: 8.28 µM [inhibitor, partial curve]",–
Cc1ccc(NC(=S)N(CCCN2CCCC(C)C2)Cc2ccco2)cc1C (configuration not stated),–,inactive: -4.24%
CCn1c(SCCN2CCOCC2)nc2c1c(=O)n(C)c(=O)n2C,"inconclusive: 0.147 µM [inhibitor, full curve, poor fit]",–

# Following part:

SMILES,Potency,"activity change, negative = inhibition"
CCCNC1=CC(=O)CC(C)(C)C1,"inconclusive: 2.62 µM [inhibitor, full curve, poor fit]",–
COc1ccc(OCCCC(=O)NC(C)c2ccccc2)cc1 (configuration not stated),active: 9.28 µM,–
CCn1c(Cc2ccc(OC)cc2)nnc1SCc1nc2ccccc2c(=O)[nH]1,"inconclusive: 7.38 µM [inhibitor, partial curve]",–
CN(C)c1cccc2c1c(NC(=O)c1ccc(Cl)cc1)nn2C,"inconclusive: 0.104 µM [inhibitor, full curve, poor fit]",–
COc1ccc(-n2nc3c(c2NC(=O)CCCl)CSC3)cc1,"inconclusive: 6.57 µM [inhibitor, partial curve, poor fit]",–
COCCNCC1C(Oc2ccc(Cl)cc2)C(=O)N1c1ccccc1C (configuration not stated),–,inactive: 188%
CCc1c(C)c2ccc(OCC(=O)N(C)C)c(C)c2oc1=O,"inconclusive: 5.22 µM [inhibitor, partial curve, poor fit]",–
Cc1nn(CC(=O)Nc2cccc(S(N)(=O)=O)c2)c(C)c1[N+](=O)[O-],"inconclusive: 18.5 µM [inhibitor, single point]",–
COc1cccc(C(=O)NC(=S)Nc2ccccc2N2CCOCC2)c1,"inconclusive: 10.4 µM [inhibitor, single point]",–
COc1ccc2c(C(=O)CN3CCSCC3)c[nH]c2c1,–,inactive: 15.8%
CC(=O)c1cccc(NC(=O)N2CCc3ccccc3C2)c1,–,inactive: -13.6%
O=C1NC(=S)N/C1=C/c1ccc(-c2c(Br)cc([N+](=O)[O-])cc2Br)o1,"inconclusive: 9.28 µM [inhibitor, single point]",–
CCOc1cccc(C(c2c(C)n(C)n(-c3ccccc3)c2=O)c2c(C)n(C)n(-c3ccccc3)c2=O)c1OC,"inconclusive: 2.62 µM [inhibitor, full curve]",–
COc1ccc2nc(NC(=O)CCc3cc(OC)c(OC)c(OC)c3)sc2c1,active: 9.28 µM,–
COCCn1c(SCC(=O)N2CCCCCC2)nnc1-c1ccco1,–,inactive: 21.9%
CCOC(=O)[C@H]1[C@H]2COc3ccc(Cl)cc3[C@@H]2N2C(=O)c3cc(F)c(F)cc3NC(=O)[C@@]12C,"inconclusive: 11.7 µM [inhibitor, single point]",–
O=C1CC(=O)N(c2cccc(Cl)c2)C(=O)N1,"inconclusive: 16.5 µM [inhibitor, single point]",–
COc1ccc(Cc2nn3c(-c4ccccc4Br)nnc3s2)cc1,"inconclusive: 8.28 µM [inhibitor, partial curve]",–
O=C(NCCC1CCCCN1S(=O)(=O)c1ccccc1)C(=O)NCc1ccncc1 (configuration not stated),"inconclusive: 18.5 µM [inhibitor, single point]",–
CCC(C(=O)NCc1ccc(F)cc1)n1nc(C)n2c(cc3occc32)c1=O (configuration not stated),"inconclusive: 18.5 µM [inhibitor, single point]",–
Cc1ccccc1CN1CCNC(=O)C1CC(=O)NCCC1=CCCCC1 (configuration not stated),"inconclusive: 18.5 µM [inhibitor, single point]",–
